T1: EGFP-BBS7 (human) (UniProt Q8IWZ6)
T1 sequence: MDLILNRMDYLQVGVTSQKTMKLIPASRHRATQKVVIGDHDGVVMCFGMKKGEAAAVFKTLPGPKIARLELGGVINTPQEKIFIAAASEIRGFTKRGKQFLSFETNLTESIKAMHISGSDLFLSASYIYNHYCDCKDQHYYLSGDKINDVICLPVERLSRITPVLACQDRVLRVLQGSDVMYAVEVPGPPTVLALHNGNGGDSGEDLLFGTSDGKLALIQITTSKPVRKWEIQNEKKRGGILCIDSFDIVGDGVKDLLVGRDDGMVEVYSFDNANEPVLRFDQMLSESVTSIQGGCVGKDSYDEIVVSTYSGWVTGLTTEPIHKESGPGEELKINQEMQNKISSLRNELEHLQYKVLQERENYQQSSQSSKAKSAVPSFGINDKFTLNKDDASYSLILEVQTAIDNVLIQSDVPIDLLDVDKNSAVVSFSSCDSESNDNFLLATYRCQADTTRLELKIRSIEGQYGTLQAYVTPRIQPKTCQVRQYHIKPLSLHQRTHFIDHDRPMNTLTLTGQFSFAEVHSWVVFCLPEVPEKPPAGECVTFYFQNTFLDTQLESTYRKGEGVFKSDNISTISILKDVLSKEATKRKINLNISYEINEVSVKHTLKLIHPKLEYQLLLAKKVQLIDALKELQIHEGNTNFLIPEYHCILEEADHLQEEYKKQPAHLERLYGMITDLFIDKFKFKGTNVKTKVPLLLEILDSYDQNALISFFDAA

T2: EGFP-BBS9 (human) (UniProt Q3SYG4)
T2 sequence: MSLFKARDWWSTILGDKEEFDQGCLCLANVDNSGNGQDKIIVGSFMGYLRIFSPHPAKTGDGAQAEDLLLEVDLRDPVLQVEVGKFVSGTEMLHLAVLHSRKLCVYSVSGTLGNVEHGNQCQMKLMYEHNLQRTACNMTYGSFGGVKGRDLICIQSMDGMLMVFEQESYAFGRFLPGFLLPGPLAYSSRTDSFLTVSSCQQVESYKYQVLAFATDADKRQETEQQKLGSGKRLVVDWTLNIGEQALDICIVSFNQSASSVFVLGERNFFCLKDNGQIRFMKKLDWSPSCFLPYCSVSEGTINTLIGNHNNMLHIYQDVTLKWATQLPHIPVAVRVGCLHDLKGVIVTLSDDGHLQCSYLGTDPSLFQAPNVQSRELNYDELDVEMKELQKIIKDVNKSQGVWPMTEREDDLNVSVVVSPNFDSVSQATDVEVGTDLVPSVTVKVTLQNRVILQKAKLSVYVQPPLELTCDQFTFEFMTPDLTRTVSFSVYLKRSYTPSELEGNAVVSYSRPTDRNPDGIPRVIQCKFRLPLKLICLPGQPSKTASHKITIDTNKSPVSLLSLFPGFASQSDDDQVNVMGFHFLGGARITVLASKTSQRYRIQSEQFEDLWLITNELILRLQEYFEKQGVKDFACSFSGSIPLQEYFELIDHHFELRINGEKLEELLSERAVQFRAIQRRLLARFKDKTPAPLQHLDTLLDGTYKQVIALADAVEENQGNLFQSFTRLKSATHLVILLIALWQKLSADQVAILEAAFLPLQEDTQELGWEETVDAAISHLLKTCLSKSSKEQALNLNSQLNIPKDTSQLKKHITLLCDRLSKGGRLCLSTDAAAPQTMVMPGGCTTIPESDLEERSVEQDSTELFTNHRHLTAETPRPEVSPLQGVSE

T3: EGFP-fused ARL6∆N15(Q73L) (UniProt Q9H0F7)
T3 sequence: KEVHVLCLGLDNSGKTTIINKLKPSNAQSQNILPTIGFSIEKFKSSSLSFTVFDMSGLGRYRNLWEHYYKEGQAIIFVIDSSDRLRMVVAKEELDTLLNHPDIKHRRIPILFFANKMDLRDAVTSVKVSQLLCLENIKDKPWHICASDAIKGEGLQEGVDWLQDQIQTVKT

B1: tRFP-fused BBS1(I399E) (protein, UniProt Q8NFJ9 1-593)
chain: MAAASSSDSDACGAESNEANSKWLDAHYDPMANIHTFSACLALADLHGDGEYKLVVGDLGPGGQQPRLKVLKGPLVMTESPLPALPAAAATFLMEQHEPRTPALALASGPCVYVYKNLRPYFKFSLPQLPPNPLEQDLWNQAKEDRIDPLTLKEMLESIRETAEEPLSIQSLRFLQLELSEMEAFVNQHKSNSIKRQTVITTMTTLKKNLADEDAVSCLVLGTENKELLVLDPEAFTILAKMSLPSVPVFLEVSGQFDVEFRLAAACRNGNIYILRRDSKHPKYCIELSAQPVGLIRVHKVLVVGSTQDSLHGFTHKGKKLWTVQMPAAILTMNLLEQHSRGLQAVMAGLANGEVRIYRDKALLNVIHTPDAVTSLCFGRYGREDNTLIMTTRGGGLIEKILKRTAVFVEGGSEVGPPPAQAMKLNVPRKTRLYVDQTLREREAGTAMHRAFQTDLYLLRLRAARAYLQALESSLSPLSTTAREPLKLHAVVQGLGPTFKLTLHLQNTSTTRPVLGLLVCFLYNEALYSLPRAFFKVPLLVPGLNYPLETFVESLSNKGISDIIKVLVLREGQSAPLLSAHVNMPGSEGLAAA
B2: tRFP-fused BBS1(R404A) (protein, UniProt Q8NFJ9 1-593)
chain: B1 chain with E399I, R404A
B3: tRFP-fused BBS1(1–575) (domain or fragment, UniProt Q8NFJ9 1-575)
chain: MAAASSSDSDACGAESNEANSKWLDAHYDPMANIHTFSACLALADLHGDGEYKLVVGDLGPGGQQPRLKVLKGPLVMTESPLPALPAAAATFLMEQHEPRTPALALASGPCVYVYKNLRPYFKFSLPQLPPNPLEQDLWNQAKEDRIDPLTLKEMLESIRETAEEPLSIQSLRFLQLELSEMEAFVNQHKSNSIKRQTVITTMTTLKKNLADEDAVSCLVLGTENKELLVLDPEAFTILAKMSLPSVPVFLEVSGQFDVEFRLAAACRNGNIYILRRDSKHPKYCIELSAQPVGLIRVHKVLVVGSTQDSLHGFTHKGKKLWTVQMPAAILTMNLLEQHSRGLQAVMAGLANGEVRIYRDKALLNVIHTPDAVTSLCFGRYGREDNTLIMTTRGGGLIIKILKRTAVFVEGGSEVGPPPAQAMKLNVPRKTRLYVDQTLREREAGTAMHRAFQTDLYLLRLRAARAYLQALESSLSPLSTTAREPLKLHAVVQGLGPTFKLTLHLQNTSTTRPVLGLLVCFLYNEALYSLPRAFFKVPLLVPGLNYPLETFVESLSNKGISDIIKVLVLREGQSA
B4: mChe-fused BBS1(WT) (protein, UniProt Q8NFJ9 1-593)
chain: B1 chain with E399I
B5: mChe-fused BBS1(1–575) (domain or fragment, UniProt Q8NFJ9 1-575)
chain: B3 chain

Where a chain is given by its changes, count along the chain named. In names and notes the source's numbering stands. Results are given in words; binding and its absence hold for the method and conditions named. Binding seen in cells or lysates may run through a third protein. Some results given as binding are weak or reduced against the parent protein; the word gives no strength. Where a sequence is shown, tags or fusion partners need not be part of it.

The first experiment deals with T1, EGFP-BBS7 (human). In words: co-IP; VIP assay: lysates of HEK293T cells co-expressing an EGFP-fused and an mChe- or tRFP-fused protein (HMDEKN buffer: 10 mM HEPES pH 7.4, 5 mM MgSO4, 1 mM DTT, 0.5 mM EDTA, 25 mM KCl, 0.5% NP-40); EGFP fusion precipitated with GST-anti-GFP nanobody on glutathione-Sepharose beads; beads read by fluorescence microscopy and, for some pairs, by immunoblotting. (A western blot detects proteins with antibodies after separation by electrophoresis.)
Consider B1, for which the binding entry is recorded as “binds”. As to B2, the binding result is “binds”. Regarding B3, the binding entry is given as “binds”.

The target in another experiment is T2, EGFP-BBS9 (human). The experiment is described as above.
As to B4, the binding result was “binds”. As for B5, the binding result was “no binding”.

The next experiment has as its target T3, EGFP-fused ARL6∆N15(Q73L). Described as above.
Consider B4, for which the binding result is reported as “binds”. For the molecule B1, the binding result is “no binding”. For the molecule B2, the binding result was “no binding”.

As to B3, the binding result is given as “binds”.

The record behind these values is paper PMC5874067.
